Laboratory results: publication PMC7324386

B1: PUX3 (protein, UniProt Q9SUG6 1-302)
chain: MSSKDKKLSKPTSGRTGGIRTLSDLNRRSEPDSDSDSDGPQEYFTGGEKSGMLVQDPTKEPKHDDVDEIFNQARQLGAVEGPLEHPSSSRSFTGTGRLLSGESVPTALQQPEPVIHNIIFWSNGFTVDDGPLRKLDDPENASFLDSIRKSECPKELEPVDKRAPVHVNLMRRDEKCPEKEKLKVSFQGVGRTLGGASSSTASSQSNLTDVAAVQSPLQSLVVDETLPSTSIQLRLADGTRMVAKFNNHHTVNDIRGFIEFSRPGNPNNYTLQVMGFPPKPLTDPSQTIEQAGLASSVVIQKF
B2: CRWN4 (protein, UniProt Q9FLH0 1-1010)
chain: MATSSRSERFPITPSTAATNRLTITPNSRVLKSPLTEEIMWKRLKDAGFDEQSIKNRDKAALIAYIAKLESEVYDYQHNMGLLLLEKNELSSQYEEIKASVDESDLTHMREKSAYVSALAEAKKREESLKKDVGIAKECISSLEKTLHEMRAECAETKVSAGSTMSEAHVMIEDALKKLADAEAKMRAAEALQAEANRYHRIAERKLKEVESREDDLTRRLASFKSECETKENEMVIERQTLNERRKSLQQEHERLLDAQVSLNQREDHIFARSQELAELEKGLDTAKTTFEEERKAFEDKKSNLEIALALCAKREEAVSERESSLLKKEQELLVAEEKIASKESELIQNVLANQEVILRKRKSDVEAELECKSKSVEVEIESKRRAWELREVDIKQREDLVGEKEHDLEVQSRALAEKEKDITEKSFNLDEKEKNLVATEEDINRKTTMLEDEKERLRKLDLELQQSLTSLEDKRKRVDSATQKLEALKSETSELSTLEMKLKEELDDLRAQKLEMLAEADRLKVEKAKFEAEWEHIDVKREELRKEAEYITRQREAFSMYLKDERDNIKEERDALRNQHKNDVESLNREREEFMNKMVEEHSEWLSKIQRERADFLLGIEMQKRELEYCIENKREELENSSRDREKAFEQEKKLEEERIQSLKEMAEKELEHVQVELKRLDAERLEIKLDRERREREWAELKDSVEELKVQREKLETQRHMLRAERDEIRHEIEELKKLENLKVALDDMSMAKMQLSNLERSWEKVSALKQKVVSRDDELDLQNGVSTVSNSEDGYNSSMERQNGLTPSSATPFSWIKRCTNLIFKTSPEKSTLMHHYEEEGGVPSEKLKLESSRREEKAYTEGLSIAVERLEAGRKRRGNTSGDETSEPSNNKKRKHDVTQKYSDEADTQSVISSPQNVPEDKHELPSSQTQTPSGMVVISETVKITRVTCETEVTNKVTTLDCSESPSEAGRKMGEETEDGDCNQTGINASETVIHNEAATEDICT

Columns and labels:
[1] = target: T1, PUX5-BioID2-HA (Arabidopsis thaliana) (UniProt Q7Y175); experiment: proximity labelling; BioID2-tagged bait in 10-day-old transgenic Arabidopsis seedlings, 50 µM biotin for 16 h at room temperature, streptavidin-coated beads, label-free quantitative MS, ratiometric analysis against controls; the SUN1 bait also with MG132 treatment
T1 sequence: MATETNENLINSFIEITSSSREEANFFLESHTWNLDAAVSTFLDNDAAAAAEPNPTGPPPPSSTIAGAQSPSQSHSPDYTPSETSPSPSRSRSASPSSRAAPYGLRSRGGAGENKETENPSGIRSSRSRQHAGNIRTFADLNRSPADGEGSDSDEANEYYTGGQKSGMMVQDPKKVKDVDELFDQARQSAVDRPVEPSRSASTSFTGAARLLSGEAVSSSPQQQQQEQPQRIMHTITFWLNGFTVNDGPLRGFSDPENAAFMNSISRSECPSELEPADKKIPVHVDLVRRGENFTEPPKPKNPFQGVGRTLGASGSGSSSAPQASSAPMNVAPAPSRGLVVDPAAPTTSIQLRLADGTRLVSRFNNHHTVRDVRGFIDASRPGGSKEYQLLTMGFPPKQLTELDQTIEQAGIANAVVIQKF

[2] = target: T2, HA-BioID2-SUN1 (Arabidopsis thaliana) (UniProt Q9FF75); experiment: as above
T2 sequence: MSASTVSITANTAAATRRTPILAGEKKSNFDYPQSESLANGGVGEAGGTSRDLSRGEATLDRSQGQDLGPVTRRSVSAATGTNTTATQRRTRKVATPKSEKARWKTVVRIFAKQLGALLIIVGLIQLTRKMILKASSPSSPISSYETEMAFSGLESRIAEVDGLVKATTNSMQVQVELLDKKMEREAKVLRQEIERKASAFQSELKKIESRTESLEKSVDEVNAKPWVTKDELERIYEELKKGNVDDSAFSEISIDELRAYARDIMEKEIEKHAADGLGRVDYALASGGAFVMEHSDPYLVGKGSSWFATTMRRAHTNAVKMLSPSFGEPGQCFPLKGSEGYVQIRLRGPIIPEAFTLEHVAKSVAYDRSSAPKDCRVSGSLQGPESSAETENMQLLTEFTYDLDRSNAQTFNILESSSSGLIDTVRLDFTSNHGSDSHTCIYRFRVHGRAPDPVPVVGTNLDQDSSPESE

| binding [1] | binding [2] | Binder |
| --- | --- | --- |
| binds | binds | B1 |
| binds | binds | B2 |

No constants are given. Whether binding was seen depends on the method and setting. In cells and extracts the contact can be indirect. Here binding means that the protein was enriched with, or labelled near, the bait; the list need not be complete. Tags and fused reporters may be left off the sequences shown.
